Screening data, single-dose tests

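Phenotypic screen: M. tuberculosis growth, glucose 7H9 medium, 3 days; the read-out is not stated. Tested at 500 µM. The record gives no direction; compounds that gave an IC50 in retests scored well above the rest, so higher reads as more growth inhibition. Size under these conditions: about 18,000 compounds, about 1,400 of them at 50% or above in at least one test.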

Values are the deposited “Percent Effect”, in %. The controls that fix the scale are not given in the record; negative values are as filed. Compounds were drawn at random from those tested, without regard to their results.

Compound,Percent Effect
CCC(=O)Nc1cccc(C(=O)Nc2cc(C)on2)c1,4.018%
COc1ccc(OC)c(-n2c(CCN)n[nH]c2=O)c1,-7.193%
O=C(NC1CCNC1)c1ccccc1 (centres undefined),5.057%
O=C1Nc2ccccc2C1C1CCNCC1 (centres undefined),14.66%
C[C@@H]1CN(C(=O)NC(C)(C)C)C[C@]1(C)O,-10.78%
CN(C)[C@@H]1CN(C(=O)c2ccccc2Br)C[C@H]1CO,-14.88%
CN1CCC2(CC1)OCCN2C(=O)c1cccc(Cl)c1,-6.196%
O=C(Nc1nc(C2CC2)cs1)C1CNCCO1 (centres undefined),19.72%
O=C(NC1CCNCC1)c1ccc(F)cc1,4.11%
Cc1cc(C(=O)N2CCCN(C(C)(C)C)CC2)n(C)n1,-4.404%
COCCN(C)CCN1CC2(CCN(C)CC2)OC1=O,4.547%
COCCNC(=O)[C@H]1[C@@H]2CN(C3CCCC3)C[C@@H]21,0.5875%
O=C(Nc1ccc(F)cc1F)N(CCO)CCCO,7.328%
Cc1ccc(C(=O)N2CCCNCC2)cc1,1.861%
N#Cc1ccc(NCc2ccccc2F)nc1,47.62%
CN(CCOc1ccc(Cl)cc1)S(C)(=O)=O,77.19%
NCC1CNCCO1 (centres undefined),-5.289%
CCCS(=O)(=O)NC(Cc1ccccn1)[C@H]1C[C@@H](O)C1 (some centres undefined),-7.208%
CC(=O)c1cccc(C(=O)N2CCCC(C#N)C2)c1 (centres undefined),-6.56%
COCCN1C(=O)N[C@H]2CNCC[C@H]21,-8.635%
CC(C)C(CN)N1CCN(C)CC1 (centres undefined),9.655%
Cc1cc(C)n(CC(=O)NCc2ccc(F)cc2)n1,64.96%
c1ccc(Oc2cccc(NCc3csnn3)c2)nc1,64.56%
CNC(=O)CSCCCOC(C)C,6.985%
CCNC(=O)CN1CCCC(c2nccn2CC)C1 (centres undefined),-5.048%
O=C(NCc1nnc2n1CCC2)c1ccccc1,-8.752%
CNC(=O)C1CCCN(c2cnc3ccccc3n2)C1 (centres undefined),4.731%
c1nnc(C2COCCN2)o1 (centres undefined),-8.387%
CN(C)CCNC(=O)c1cc(Br)cs1,19.06%
COCC(N)c1cccc(Cl)c1 (centres undefined),12.77%
CC1(C)CCC(CO)NC1 (centres undefined),3.608%
COc1ccccc1C(N)c1ccco1 (centres undefined),-1.594%
Cc1occc1[S+]([O-])CC(=O)c1ccc[nH]1 (centres undefined),2.473%
COCC1(C(=O)NC(Cn2ccnc2)C(C)(C)C)CC1 (centres undefined),-0.98%
COc1ncccc1C(=O)N1CCc2[nH]ncc2C1,-5.696%
CCS(=O)(=O)c1cc(Cl)cc(CO)c1,9.265%
NCc1noc(-c2cccs2)n1,19.49%
Brc1cnn(C2CCNCC2)c1,21.36%
CSc1ccc(NC(=O)C(C)N2CCN(C)CC2)cn1 (centres undefined),-7.259%
CCn1ncnc1C(C)NC(=O)Cc1ccncc1 (centres undefined),-5.505%
COC(=O)CNC(=O)C(C)N(C)CC(C)C (centres undefined),-14.84%
NCc1ccc(CC(N)=O)cc1,7.805%
N#CCSc1nc2c(cc1C#N)CCCC2,1.557%
O=C(NCCCNCc1cccnc1)c1occc1Br,-5.127%
CC(C)OCCCNC(=O)C1CCNC1 (centres undefined),-2.413%
O=C(CNCC1CC1)Nc1ccc(F)cc1,60.19%
CC(C(=O)NCc1cccs1)n1cccn1 (centres undefined),19.2%
Cc1n[nH]cc1C(F)(F)F,-2.96%
COCC(=O)Nc1cccc(CN(C)C(C)=O)c1,4.078%
c1csc(N2CCN(c3ccc4nnnn4n3)CC2)n1,1.709%
COc1ccc(C(=O)C2CCCN2)cc1 (centres undefined),39.13%
CCN1CCC(NC(=O)Nc2ccccc2)CC1,-22.78%
c1cnc(C2CCCN2)nc1 (centres undefined),-1.501%

Measurements from “University of Dundee, Small-Polar-MMV Screening Library” (2021), ChEMBL document CHEMBL3988442.